Measured values: PMC10854676
Results are given in words; binding and its absence hold for the method and conditions named. Some entries that bind do so weakly or less than the wild type.

Protein sequences, listed by entry. Tags and fused reporters are not part of them. Lines headed by an entry give the natural chain unless they say otherwise; changes in a name come on top. Chains listed by the source or under a name are the forms on record and can include a tag or linker. Residues count along the entry.
UniProt Q03164, residues 1-160: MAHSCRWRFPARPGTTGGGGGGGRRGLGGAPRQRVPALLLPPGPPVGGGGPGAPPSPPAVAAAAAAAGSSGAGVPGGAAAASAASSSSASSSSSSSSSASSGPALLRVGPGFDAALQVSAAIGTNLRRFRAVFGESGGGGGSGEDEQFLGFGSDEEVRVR
UniProt O75475: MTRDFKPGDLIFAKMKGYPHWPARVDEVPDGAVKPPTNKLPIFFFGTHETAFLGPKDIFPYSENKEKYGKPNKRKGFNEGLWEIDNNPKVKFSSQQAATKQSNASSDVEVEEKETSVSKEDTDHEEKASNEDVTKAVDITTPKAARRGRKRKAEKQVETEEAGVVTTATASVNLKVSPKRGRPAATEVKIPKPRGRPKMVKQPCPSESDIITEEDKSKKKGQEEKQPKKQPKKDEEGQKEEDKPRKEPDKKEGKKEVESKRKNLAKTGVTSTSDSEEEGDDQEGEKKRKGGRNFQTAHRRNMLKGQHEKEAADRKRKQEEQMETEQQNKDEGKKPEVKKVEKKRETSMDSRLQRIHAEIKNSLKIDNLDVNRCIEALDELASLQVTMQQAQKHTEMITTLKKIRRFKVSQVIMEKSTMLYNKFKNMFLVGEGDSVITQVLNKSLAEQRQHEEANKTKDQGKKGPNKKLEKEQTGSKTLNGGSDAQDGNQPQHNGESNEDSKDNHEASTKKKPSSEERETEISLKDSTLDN
Flag-LEDGF/p75_(dDNA) (O75475, form named): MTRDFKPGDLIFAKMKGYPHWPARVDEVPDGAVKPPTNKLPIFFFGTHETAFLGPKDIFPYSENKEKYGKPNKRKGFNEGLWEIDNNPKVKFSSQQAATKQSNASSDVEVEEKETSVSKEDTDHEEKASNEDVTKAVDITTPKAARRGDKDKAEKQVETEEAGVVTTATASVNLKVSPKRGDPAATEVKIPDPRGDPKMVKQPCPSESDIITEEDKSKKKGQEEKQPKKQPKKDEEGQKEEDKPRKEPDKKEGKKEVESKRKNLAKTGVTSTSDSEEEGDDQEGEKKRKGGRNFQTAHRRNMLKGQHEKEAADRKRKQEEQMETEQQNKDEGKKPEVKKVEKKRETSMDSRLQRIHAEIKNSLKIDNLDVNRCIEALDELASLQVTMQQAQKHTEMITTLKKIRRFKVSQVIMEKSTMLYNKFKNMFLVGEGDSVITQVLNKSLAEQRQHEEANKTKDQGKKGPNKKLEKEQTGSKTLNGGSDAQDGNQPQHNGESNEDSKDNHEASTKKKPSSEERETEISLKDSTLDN

Tests used:
MLL1_(1–160)-GST [1] = target: MLL1_(1–160)-GST (UniProt Q03164); assay: AlphaScreen or HTRF; direct titration or cross-titration of two differently tagged proteins at nanomolar concentrations (one partner fixed at 100-350 nM); no nuclease; protein batches held DNA at 2 µg/mL or lower; both purified
JPO2 [2] = target: T1, JPO2 (UniProt Q96GN5); assay: AlphaScreen or HTRF; LEDGF/p75 with JPO2, DNA present (Supporting Figure S3); format not given
T1 sequence: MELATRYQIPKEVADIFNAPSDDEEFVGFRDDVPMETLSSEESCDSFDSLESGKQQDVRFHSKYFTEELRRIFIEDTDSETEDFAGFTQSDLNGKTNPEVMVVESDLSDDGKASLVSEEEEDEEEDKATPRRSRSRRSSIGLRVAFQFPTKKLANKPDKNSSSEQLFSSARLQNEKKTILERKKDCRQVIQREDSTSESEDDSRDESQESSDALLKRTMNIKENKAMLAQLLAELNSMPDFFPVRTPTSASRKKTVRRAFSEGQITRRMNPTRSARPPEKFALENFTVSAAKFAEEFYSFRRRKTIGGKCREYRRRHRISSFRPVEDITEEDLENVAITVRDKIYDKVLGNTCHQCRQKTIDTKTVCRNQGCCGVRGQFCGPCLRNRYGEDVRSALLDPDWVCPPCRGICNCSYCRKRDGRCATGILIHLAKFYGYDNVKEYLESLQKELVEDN

GST-LEDGF/p75 = GST-LEDGF/p75 (UniProt O75475); assay: condition: only with 0.13 U/well micrococcal nuclease; AlphaScreen or HTRF; direct titration with 0.13 U/well micrococcal nuclease (and 5 mM CaCl2) in the AlphaScreen buffer to digest the remaining DNA; both purified
MLL1_(1–160)-GST [3] = target: MLL1_(1–160)-GST (UniProt Q03164); assay: as above
JPO2 [4] = target: T1, JPO2; assay: AlphaScreen or HTRF; LEDGF/p75 with JPO2 in the absence of DNA (Supporting Figure S3); how the DNA was removed is not given
Flag-LEDGF/p75 WT = Flag-LEDGF/p75 WT (UniProt O75475); assay: AlphaScreen or HTRF; direct titration or cross-titration of two differently tagged proteins at nanomolar concentrations (one partner fixed at 100-350 nM); no nuclease; protein batches held DNA at 2 µg/mL or lower; both purified

Flag-LEDGF/p75_(dDNA) (from UniProt O75475 1-530)
binding (MLL1_(1–160)-GST [1]): no binding | binding (JPO2 [2]): no binding

Flag-LEDGF/p75 WT (from UniProt O75475 1-530)
binding (GST-LEDGF/p75): no binding | binding (MLL1_(1–160)-GST [3]): no binding | binding (JPO2 [2]): binds | binding (JPO2 [4]): no binding (condition: in the absence of DNA)

His6-LEDGF_(345–530) (from UniProt O75475 345-530) (domain or fragment)
binding (Flag-LEDGF/p75 WT): binds weakly
